These results are taken from patent US20140225048A1, “LIQUID COMPOSITION, AND COLOR-FILTER RESIST COMPOSITION, THERMAL-TRANSFER RECORDING SHEET AND INK WHICH MAKE USE OF THE LIQUID COMPOSITION” (CANON KABUSHIKI KAISHA, priority 2011, published 2014).

Some entries repeat one wording, which the source may state once for all of them.

Data set [1] is described as follows: Coloring power evaluation of liquid compositions bar-coated on opacity measuring sheet. The note with it: pigment quantity per unit area (5 cm×5 cm) 6.5 mg; for Coloring power C*: calculated from a* and b*.
Data set [2] in a line: Color tone evaluation of liquid compositions bar-coated on opacity measuring sheet. The note with it: for Color tone Rank: by C* when L* was 50; for Color tone L* / Color tone a* / Color tone b*: liquid composition (compound in styrene), bar coating No. 10, air-dried overnight; for Color tone C* (chroma): value of C* found when L* was 50, calculated from a* and b*.

As for `CCCCC(CC)COCCCNc1ccc2c3c(cc(=O)n2CCCC)-c2ccccc2C(=O)c13` (centres unmarked) [Compound (7)], in data set [1], the “Coloring power Rank” value was “A (The C* is 80 or more (the coloring power is very high))” and the “Coloring power C*” value is given as 83.2. Besides, in data set [2], the “Color tone Rank” value is given as “A (The C* is 85 or more (the color tone is very good))”, the “Color tone L*” value was found to be 50.1, the “Color tone a*” value is reported as 82.2 and the “Color tone b*” value is 36.2. For the same compound, the “Color tone C* (chroma)” value in data set [2] is 89.8.

As to `CCCCC(CC)CNc1ccc2c3c(cc(=O)n2C)-c2ccccc2C(=O)c13` (centres unmarked) [Compound (1)], in data set [1], the “Coloring power Rank” value is on record as “A (The C* is 80 or more (the coloring power is very high))” and the “Coloring power C*” value is on record as 83.6. Further, in data set [2], the “Color tone Rank” value is listed as “B (The C* is 65 or more to less than 85 (the color tone is good))”, the “Color tone L*” value was 49.7, the “Color tone a*” value stood at 81.9 and the “Color tone b*” value is on record as 12.5. In data set [2], the “Color tone C* (chroma)” value is 82.8.

On to `Cc1cccc(Nc2ccc3c4c(cc(=O)n3C)-c3ccccc3C(=O)c24)c1` [(3), reference compound], for which, in data set [1], the “Coloring power Rank” value is on record as “C (The C* is less than 70 (the coloring power is low))” and the “Coloring power C*” value is given as 45.3. In data set [2], the “Color tone Rank” value is “C (The C* is less than 65 (the color tone is poor))”, the “Color tone L*” value came out at 48.2, the “Color tone a*” value turned out to be 24.5 and the “Color tone b*” value is given as −25.2. For the same compound, the “Color tone C* (chroma)” value in data set [2] is 35.1.

For the compound `CCCCOCCCNc1ccc2c3c(cc(=O)n2CCCC)-c2ccccc2C(=O)c13` [Compound (6)], in data set [1], the “Coloring power Rank” value is recorded as “A (The C* is 80 or more (the coloring power is very high))” and the “Coloring power C*” value was 84.8. For the same compound, in data set [2], the “Color tone Rank” value was “A (The C* is 85 or more (the color tone is very good))”, the “Color tone L*” value came to 50.1, the “Color tone a*” value was 82.0 and the “Color tone b*” value amounted to 37.7. For the same compound, the “Color tone C* (chroma)” value in data set [2] is given as 90.3.

With `Cn1c(=O)cc2c3c(c(Nc4ccccc4)ccc31)C(=O)c1ccccc1-2` [(1), reference compound], in data set [1], the “Coloring power Rank” value is given as “C (The C* is less than 70 (the coloring power is low))” and the “Coloring power C*” value is recorded as 55.3. Moreover, in data set [2], the “Color tone Rank” value was “C (The C* is less than 65 (the color tone is poor))”, the “Color tone L*” value is listed as 49.6, the “Color tone a*” value is listed as 40.9 and the “Color tone b*” value is listed as −18.2. Besides, in data set [2], the “Color tone C* (chroma)” value is listed as 44.8.

For `O=C1c2ccccc2-c2cc(=O)n(C3CCCCC3)c3ccc(NC4CCCCC4)c1c23` [(5), reference compound], in data set [1], the “Coloring power Rank” value is “C (The C* is less than 70 (the coloring power is low))” and the “Coloring power C*” value is reported as 66.0. Moreover, in data set [2], the “Color tone Rank” value was “A (The C* is 85 or more (the color tone is very good))”, the “Color tone L*” value was 52.2, the “Color tone a*” value is 81.3 and the “Color tone b*” value was 48.2. Moreover, the “Color tone C* (chroma)” value in data set [2] was 94.5.

`CCCCn1c(=O)cc2c3c(c(NCCC4=CCCCC4)ccc31)C(=O)c1ccccc1-2` [Compound (9)]: in data set [1], the “Coloring power Rank” value is given as “A (The C* is 80 or more (the coloring power is very high))” and the “Coloring power C*” value was 84.1. In data set [2], the “Color tone Rank” value is given as “A (The C* is 85 or more (the color tone is very good))”, the “Color tone L*” value is listed as 49.9, the “Color tone a*” value came to 80.3 and the “Color tone b*” value is on record as 31.8. The “Color tone C* (chroma)” value in data set [2] is reported as 86.4.

For the compound `Cc1ccc(Nc2ccc3c4c(cc(=O)n3-c3ccc(C)cc3)-c3ccccc3C(=O)c24)cc1` [(4), reference compound], in data set [1], the “Coloring power Rank” value was “C (The C* is less than 70 (the coloring power is low))” and the “Coloring power C*” value is recorded as 43.7. Besides, in data set [2], the “Color tone Rank” value was “C (The C* is less than 65 (the color tone is poor))”, the “Color tone L*” value stood at 50.2, the “Color tone a*” value stood at 40.7 and the “Color tone b*” value was −9.7. Moreover, the “Color tone C* (chroma)” value in data set [2] was 41.9.

With `CCCCCCCCCCCCNc1ccc2c3c(cc(=O)n2CCCC)-c2ccccc2C(=O)c13` [Compound (8)], in data set [1], the “Coloring power Rank” value is on record as “A (The C* is 80 or more (the coloring power is very high))” and the “Coloring power C*” value is reported as 84.0. Besides, in data set [2], the “Color tone Rank” value was “A (The C* is 85 or more (the color tone is very good))”, the “Color tone L*” value turned out to be 50.1, the “Color tone a*” value is reported as 85.3 and the “Color tone b*” value came to 10.9. Further, in data set [2], the “Color tone C* (chroma)” value is listed as 86.0.

Take `Cc1ccc(Nc2ccc3c4c(cc(=O)n3C)-c3ccccc3C(=O)c24)cc1` [(2), reference compound]: in data set [1], the “Coloring power Rank” value was “C (The C* is less than 70 (the coloring power is low))” and the “Coloring power C*” value is reported as 44.1. Moreover, in data set [2], the “Color tone Rank” value is reported as “C (The C* is less than 65 (the color tone is poor))”, the “Color tone L*” value was 50.7, the “Color tone a*” value amounted to 32.8 and the “Color tone b*” value is listed as −13.9. For the same compound, the “Color tone C* (chroma)” value in data set [2] is reported as 35.6.

On to `CCCCC(CC)CNc1ccc2c3c(cc(=O)n2CC(CC)CCCC)-c2ccccc2C(=O)c13` (centres unmarked) [Compound (5)], for which, in data set [1], the “Coloring power Rank” value is listed as “A (The C* is 80 or more (the coloring power is very high))” and the “Coloring power C*” value is given as 85.4. In data set [2], the “Color tone Rank” value is given as “A (The C* is 85 or more (the color tone is very good))”, the “Color tone L*” value was found to be 49.9, the “Color tone a*” value is 84.0 and the “Color tone b*” value stood at 28.5. Also, the “Color tone C* (chroma)” value in data set [2] is reported as 88.7.
